Source: the supplement of paper PMC8612539
The source gives many values for each of these; only a part stands here.

System: Escherichia coli
Assay: minimum inhibitory concentration (MIC)
Description: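 Broth microdilution MIC (Sensititre BOPO7F bovine plate, CLSI methods) of 19 antimicrobials against field isolates of P. multocida, M. haemolytica, H. somni (deep nasopharyngeal swabs) and E. coli, Enterococcus spp. (rectal swabs) from weaned dairy heifers. Incubation 16-24 h at 35 C. MIC is the lowest concentration preventing visible growth. Values with <= or > lie at the tested range limits. Trimethoprim-sulfamethoxazole is given as the trimethoprim component of a 1:19 mixture.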

Measured: minimum inhibitory concentration

CC[C@H]1OC(=O)C[C@@H](O)[C@H](C)[C@@H](O[C@@H]2O[C@H](C)[C@@H](O[C@H]3C[C@@](C)(O)[C@@H](O)[C@H](C)O3)[C@H](N(C)C)[C@H]2O)[C@@H](CC=O)C[C@@H](C)C(=O)/C=C/C(C)=C/[C@@H]1CO[C@@H]1O[C@H](C)[C@@H](O)[C@@H](OC)[C@H]1OC [Tylosin]
> 32 µg/mL: isolate (source animal id): 1 | isolate (source animal id): 2 | isolate (source animal id): 3 | isolate (source animal id): 4 | isolate (source animal id): 5 | isolate (source animal id): 6 | isolate (source animal id): 7 | isolate (source animal id): 17 | isolate (source animal id): 18 | isolate (source animal id): 19 | isolate (source animal id): 20 | isolate (source animal id): 21 | isolate (source animal id): 22 | isolate (source animal id): 23 | isolate (source animal id): 24 | isolate (source animal id): 25 | isolate (source animal id): 26 | isolate (source animal id): 27 | isolate (source animal id): 28 | isolate (source animal id): 29 | isolate (source animal id): 30 | isolate (source animal id): 31 | isolate (source animal id): 32 | isolate (source animal id): 33 | isolate (source animal id): 34 | isolate (source animal id): 35 | isolate (source animal id): 36 | isolate (source animal id): 37 | isolate (source animal id): 38 | isolate (source animal id): 39 | isolate (source animal id): 40 | isolate (source animal id): 41 | isolate (source animal id): 42 | isolate (source animal id): 43 | isolate (source animal id): 44 | isolate (source animal id): 45 | isolate (source animal id): 46 | isolate (source animal id): 47 | isolate (source animal id): 48 | isolate (source animal id): 49 | isolate (source animal id): 50 | isolate (source animal id): 51 | isolate (source animal id): 52 | isolate (source animal id): 53 | isolate (source animal id): 54 | isolate (source animal id): 55 | isolate (source animal id): 56 | isolate (source animal id): 57 | isolate (source animal id): 58 | isolate (source animal id): 59 | isolate (source animal id): 60 | isolate (source animal id): 61 | isolate (source animal id): 62 | isolate (source animal id): 63 | isolate (source animal id): 64 | isolate (source animal id): 65 | isolate (source animal id): 66 | isolate (source animal id): 67 | isolate (source animal id): 68 | isolate (source animal id): 69 | isolate (source animal id): 70 | isolate (source animal id): 71 | isolate (source animal id): 72 | isolate (source animal id): 73 | isolate (source animal id): 74 | isolate (source animal id): 75 | isolate (source animal id): 76 | isolate (source animal id): 77 | isolate (source animal id): 78 | isolate (source animal id): 79 | isolate (source animal id): 80 | isolate (source animal id): 81 | isolate (source animal id): 82 | isolate (source animal id): 83 | isolate (source animal id): 84 | isolate (source animal id): 85 | isolate (source animal id): 86 | isolate (source animal id): 87 | isolate (source animal id): 88 | isolate (source animal id): 89 | isolate (source animal id): 90 | isolate (source animal id): 91 | isolate (source animal id): 92 | isolate (source animal id): 93 | isolate (source animal id): 94 | isolate (source animal id): 95 | isolate (source animal id): 96 | isolate (source animal id): 97 | isolate (source animal id): 189 | isolate (source animal id): 190 | isolate (source animal id): 191 | isolate (source animal id): 192 | isolate (source animal id): 193 | isolate (source animal id): 194 | isolate (source animal id): 195 | isolate (source animal id): 196 | isolate (source animal id): 197 | isolate (source animal id): 198 | isolate (source animal id): 199 | isolate (source animal id): 200 | isolate (source animal id): 201 | isolate (source animal id): 202 | isolate (source animal id): 203 | isolate (source animal id): 204 | isolate (source animal id): 205 | isolate (source animal id): 206 | isolate (source animal id): 207 | isolate (source animal id): 208 | isolate (source animal id): 209 | isolate (source animal id): 210 | isolate (source animal id): 211 | isolate (source animal id): 212 | isolate (source animal id): 213 | isolate (source animal id): 214 | isolate (source animal id): 215 | isolate (source animal id): 216 | isolate (source animal id): 217 | isolate (source animal id): 218 | isolate (source animal id): 219 | isolate (source animal id): 220 | isolate (source animal id): 221 | isolate (source animal id): 222 | isolate (source animal id): 223 | isolate (source animal id): 224 | isolate (source animal id): 225 | isolate (source animal id): 226 | isolate (source animal id): 227 | isolate (source animal id): 228 | isolate (source animal id): 229 | isolate (source animal id): 230 | isolate (source animal id): 231 | isolate (source animal id): 232 | isolate (source animal id): 233 | isolate (source animal id): 234 | isolate (source animal id): 235 | isolate (source animal id): 236 | isolate (source animal id): 237 | isolate (source animal id): 238 | isolate (source animal id): 239 | isolate (source animal id): 240 | isolate (source animal id): 241 | isolate (source animal id): 242 | isolate (source animal id): 243 | isolate (source animal id): 244 | isolate (source animal id): 245 | isolate (source animal id): 246 | isolate (source animal id): 247 | isolate (source animal id): 248 | isolate (source animal id): 249 | isolate (source animal id): 250 | isolate (source animal id): 251 | isolate (source animal id): 252 | isolate (source animal id): 253 | isolate (source animal id): 254 | isolate (source animal id): 255 | isolate (source animal id): 256 | isolate (source animal id): 257 | isolate (source animal id): 258 | isolate (source animal id): 259 | isolate (source animal id): 260 | isolate (source animal id): 261 | isolate (source animal id): 262 | isolate (source animal id): 263 | isolate (source animal id): 264 | isolate (source animal id): 265 | isolate (source animal id): 266 | isolate (source animal id): 267 | isolate (source animal id): 268 | isolate (source animal id): 269 | isolate (source animal id): 270 | isolate (source animal id): 271 | isolate (source animal id): 272 | isolate (source animal id): 273 | isolate (source animal id): 274 | isolate (source animal id): 275 | isolate (source animal id): 276 | isolate (source animal id): 277 | isolate (source animal id): 278 | isolate (source animal id): 279 | isolate (source animal id): 280 | isolate (source animal id): 281 | isolate (source animal id): 282 | isolate (source animal id): 283 | isolate (source animal id): 284 | isolate (source animal id): 285 | isolate (source animal id): 286 | isolate (source animal id): 287 | isolate (source animal id): 288 | isolate (source animal id): 289 | isolate (source animal id): 290 | isolate (source animal id): 291 | isolate (source animal id): 292 | isolate (source animal id): 293 | isolate (source animal id): 295 | isolate (source animal id): 296 | isolate (source animal id): 297 | isolate (source animal id): 298 | isolate (source animal id): 299 | isolate (source animal id): 300 | isolate (source animal id): 301 | isolate (source animal id): 302 | isolate (source animal id): 303 | isolate (source animal id): 304 | isolate (source animal id): 305 | isolate (source animal id): 306 | isolate (source animal id): 307 | isolate (source animal id): 308 | isolate (source animal id): 309 | isolate (source animal id): 310 | isolate (source animal id): 311 | isolate (source animal id): 312 | isolate (source animal id): 313 | isolate (source animal id): 314 | isolate (source animal id): 315 | isolate (source animal id): 316 | isolate (source animal id): 317 | isolate (source animal id): 318 | isolate (source animal id): 319 | isolate (source animal id): 320 | isolate (source animal id): 321 | isolate (source animal id): 322 | isolate (source animal id): 323 | isolate (source animal id): 324 | isolate (source animal id): 325 | isolate (source animal id): 326 | isolate (source animal id): 327 | isolate (source animal id): 328 | isolate (source animal id): 329 | isolate (source animal id): 330 | isolate (source animal id): 331 | isolate (source animal id): 332 | isolate (source animal id): 333 | isolate (source animal id): 334 | isolate (source animal id): 335 | isolate (source animal id): 336 | isolate (source animal id): 337 | isolate (source animal id): 338 | isolate (source animal id): 339 | isolate (source animal id): 340 | isolate (source animal id): 341
32 µg/mL: isolate (source animal id): 294
